Measurements: PubChem BioAssay AID540256 (National Center for Advancing Translational Sciences (NCATS), 2011)
Screen size: about 300,000 compounds; about 3,700 (1.2%) were called active. Inconclusive results, whose numbers are uncertain, are shown with a selection of clear calls. Calls come from the whole dose curve; tested in HEK293 cells. Where the call is inconclusive, the potency comes from a doubtful curve fit.
Potency is the fitted concentration of half-maximal effect.

Test: qHTS for Inhibitors of binding or entry into cells for Lassa Virus; note: nearly all actives have a fitted effect of over 50% in size
Settings: Lassa virus pseudotype entry inhibition, cell reporter; series mostly up to 37.9 µM
With `CN(C)c1ccc(-c2nc(-c3ccco3)no2)cc1[N+](=O)[O-]` the Potency was “inactive”.
For `Cc1cc(C)c(C(N)=O)c(Nc2ccc(F)cc2)n1`, the Potency was inconclusive: 35.5 µM [inhibitor, single point].
With `Brc1ccccc1/C=N/Nc1ccc2ccccc2n1` the Potency was inconclusive: 35.5 µM [inhibitor, single point].
With `Nc1ccc(C(=O)OCc2nc3ccccc3s2)cc1` the Potency was “inactive”.
In the case of `COc1ccc(S(=O)(=O)N2CCN(CC(=O)Nc3cc(C(F)(F)F)ccc3Cl)CC2)cc1`, the Potency is reported as inconclusive: 1.58 µM [inhibitor, partial curve, poor fit].
In the case of `O=C(C1CC1)N1CCc2cc(Br)cc(S(=O)(=O)N3CCN(c4ccccn4)CC3)c21`, the Potency is reported as inconclusive: 0.651 µM [activator, full curve, poor fit].
For `COc1ccccc1NC(=O)Cn1nnc(C(=O)Nc2ccccc2)c1N`, the Potency was inconclusive: 3.16 µM [inhibitor, partial curve, poor fit].
For `CCOc1ccc(N2C(=O)c3n[nH]c(-c4cccs4)c3C2c2cccc(F)c2)cc1` (stereo unspecified), the Potency was inconclusive: 7.94 µM [inhibitor, partial curve, poor fit].
For `CCCn1c(SCC(=O)NCc2ccco2)nnc1C(C)C`, the Potency was “inactive”.
In the case of `CCN(CCCl)c1cc(CN(C)C)cc(NC(=O)c2ccc(C(=O)Nc3cc(CN(C)C)cc(N(CC)CCCl)c3)cc2)c1`, the Potency is reported as inconclusive: 8.91 µM [inhibitor, partial curve, poor fit].
With `CCCCOc1ccc(/C=C/C(=O)N(CC)CC(=O)Nc2ccc3c(c2)OCCO3)cc1OC` the Potency was “inactive”.
In the case of `COc1ccc(-n2cnc3cc(NC(=O)c4ccco4)ccc32)cc1`, the Potency is reported as “inactive”.
For `O=C(OCc1ccccc1)c1cccc(-c2nnn(Cc3ccccc3)n2)c1`, the Potency was inconclusive: 4.47 µM [inhibitor, full curve, poor fit].
For `COc1ccc(/C=C(\C#N)C(=O)Nc2cccnc2)cc1`, the Potency was “inactive”.
With `COc1ccc(CSCC(=O)N/N=C/c2ccc(OCC(=O)NCc3ccco3)cc2)cc1` the Potency was inconclusive: 35.5 µM [inhibitor, single point].
In the case of `Cc1ccc(NC(=S)NCc2cccs2)cc1`, the Potency is reported as “inactive”.
With `CCOc1ccc(N2Nc3n[nH]c(N)c3N2)cc1` the Potency was inconclusive: 4.61 µM [activator, partial curve].
For `CCc1cccc(C)c1NC(=O)CCn1c(=O)c2cccn2c2ccccc21`, the Potency was inconclusive: 7.08 µM [inhibitor, partial curve, poor fit].
For `CC1CCCC(C)N1C(=O)Cn1cc(/C=C2/C(=O)Nc3ccccc32)c2ccccc21` (stereo unspecified), the Potency was inconclusive: 35.5 µM [inhibitor, single point].
In the case of `CCC(=O)Nc1ccc2oc(-c3cccnc3)nc2c1`, the Potency is reported as inconclusive: 35.5 µM [inhibitor, single point].
For `COc1ccc(C(=S)NCS(=O)(=O)c2ccc(C)cc2)cc1`, the Potency was “inactive”.
With `OCC#CCSc1nnc(-c2ccc(Br)cc2)o1` the Potency was “inactive”.
In the case of `O=C(NC1CC1)c1ccc(N2CCCCC2)c([N+](=O)[O-])c1`, the Potency is reported as inconclusive: 15.8 µM [inhibitor, single point].
In the case of `CCc1ccc(N2CC(O)(c3cccs3)[N+]3=C2SCCC3)cc1` (stereo unspecified), the Potency is reported as inconclusive: 7.08 µM [inhibitor, full curve, poor fit].
For `C/C(N)=C(/C#N)C(=O)COC(=O)c1cc(-c2cccc3ccccc23)nc2ccccc12`, the Potency was “inactive”.
For `Cc1cccc(C)c1NC(=O)CCCCCC1NC(=O)NC1C` (stereo unspecified), the Potency was “inactive”.
With `NNC(=O)c1ccc(CSc2nc3ccccc3[nH]2)cc1` the Potency was inconclusive: 10 µM [inhibitor, partial curve].
In the case of `N#CC1=C2N=C(N)c3ccccc3N2C2=C(C(=O)CCC2)C1c1cccc(Cl)c1` (stereo unspecified), the Potency is reported as inconclusive: 20.6 µM [inhibitor, single point].
In the case of `S=C(NCCc1ccccc1)N1CCN(C23CC4CC(CC(C4)C2)C3)CC1`, the Potency is reported as inconclusive: 20 µM [inhibitor, single point].
For `O=C(NCC1COc2ccccc2O1)c1ccco1` (stereo unspecified), the Potency was “inactive”.
For `Cc1ccc(S(=O)(=O)CCSC(=N)N)cc1`, the Potency was inconclusive: 35.5 µM [inhibitor, single point].
With `CCOc1ccccc1CNC(=O)Cn1cc2c(n1)-c1c(oc(C(=O)N3CCCC3)c1C)CC2` the Potency was inconclusive: 11.2 µM [inhibitor, single point].
For `O=C1C=Cc2ccccc2C1=O`, the Potency was “inactive”.
For `CC(N)C(=O)OC(C)(C)Cc1ccc(Cl)cc1` (stereo unspecified), the Potency was inconclusive: 2.59 µM [activator, partial curve, poor fit].
In the case of `Cc1ccc2nc(-c3ccc(Cl)c(NC(=O)COc4ccc(C(C)C)cc4)c3)oc2c1`, the Potency is reported as “inactive”.
With `O=C(CSc1ncn[nH]1)N1N=C2/C(=C/c3ccco3)CCCC2C1c1ccco1` (stereo unspecified) the Potency was “inactive”.
For `COC(=O)c1ccc(CSc2ccccc2C)o1`, the Potency was “inactive”.
In the case of `CC(Oc1ccc(Br)cc1)C(=O)Nc1ncn[nH]1` (stereo unspecified), the Potency is reported as “inactive”.
For `CC1CCN(c2cc(N3CCN(C(=O)c4ccc(F)c(F)c4)CC3)c([N+](=O)[O-])cc2F)CC1`, the Potency was inconclusive: 17.8 µM [inhibitor, partial curve, poor fit].
In the case of `COCCCNC(=O)CNC(=S)N(Cc1cc(OC)c(OC)c(OC)c1)C1CCCC1`, the Potency is reported as inconclusive: 3.16 µM [inhibitor, single point].
For `CCOc1ccc(-n2nc(CO)c(C(=O)NCc3cccs3)n2)cc1`, the Potency was inconclusive: 1.78 µM [inhibitor, partial curve, poor fit].
In the case of `Cc1cccc(N(Cc2ccccc2)C(=O)CCl)c1`, the Potency is reported as “inactive”.
In the case of `CC1Cc2cc(/C=C3/SC(=S)NC3=O)ccc2O1` (stereo unspecified), the Potency is reported as inconclusive: 35.5 µM [inhibitor, single point].
For `O=C(Nc1ccc(NC(=O)c2ccc(Cl)cc2Cl)cc1)c1ccc2c(c1)OCO2`, the Potency was “inactive”.
For `c1ccc(-c2ccc(-c3n(-c4ccccn4)c4ccccc4[n+]3-c3ccccn3)cc2)cc1`, the Potency was inconclusive: 29.1 µM [inhibitor, single point].
With `CC(=O)c1ccccc1NC(=O)COC(=O)/C=C/c1ccc(C)o1` the Potency was inconclusive: 10 µM [inhibitor, partial curve, poor fit].
With `Cc1nc(SC(C)C(=O)Nc2ccccc2Cl)cc(-c2ccccc2)n1` (stereo unspecified) the Potency was inconclusive: 7.94 µM [inhibitor, partial curve, poor fit].
In the case of `CCn1cc(C(=O)N2CCN(c3cc(C)ccc3C)CC2)c(=O)c2cc(S(=O)(=O)N3CCCCC3)ccc21`, the Potency is reported as inconclusive: 8.91 µM [inhibitor, partial curve, poor fit].
For `C=CCOc1cccc(CNc2ccc3[nH]c(=O)[nH]c3c2)c1`, the Potency was inconclusive: 1.26 µM [inhibitor, single point].
With `O=S(=O)(NCCC1=CCCCC1)c1c(Cl)cccc1Cl` the Potency was “inactive”.
For `COc1ccc(S(=O)(=O)NCCS(=O)(=O)N2CCN(c3ccccc3)CC2)cc1C`, the Potency was “inactive”.
In the case of `COc1ccc(N(C)C(=O)c2cnc(N3CCN(c4ncccn4)CC3)c3ccccc23)cc1`, the Potency is reported as inconclusive: 1.64 µM [inhibitor, partial curve].
With `CC(NC(=O)c1ccccc1)C(=O)N/N=C/c1cccc([N+](=O)[O-])c1` (stereo unspecified) the Potency was “inactive”.
For `O=C(Cc1ccccc1)N1CCN(C(=O)c2ccco2)CC1`, the Potency was “inactive”.
With `CCOC(=O)N1CCN(C(=O)CSc2nc3c([nH]c4ccccc43)c(=O)n2CCOC)CC1` the Potency was inconclusive: 17.8 µM [inhibitor, single point].
In the case of `O=C(O)Cc1sc(Nc2ccccc2)nc1-c1ccccc1`, the Potency is reported as inconclusive: 0.562 µM [inhibitor, full curve, poor fit].
For `Cc1ccc(NC(=O)c2c(C)nn(-c3ccccc3)c2Cl)c(C)c1`, the Potency was “inactive”.
For `CCN(CC)c1ccc2c(c1)oc(=O)c1c(Cl)cc(=O)oc12`, the Potency was inconclusive: 35.5 µM [inhibitor, single point].
For `CCCCc1ccc(/C(C)=N/NC(=O)C2CCCC2)cc1`, the Potency was “inactive”.
For `COCC(C)n1c(SCc2cc(C(=O)OC)c(C)o2)nc2ccccc2c1=O` (stereo unspecified), the Potency was inconclusive: 7.08 µM [inhibitor, partial curve].
For `CCc1nnc(NC(=O)c2cccc(OC)c2)s1`, the Potency was inconclusive: 12.6 µM [inhibitor, partial curve, poor fit].
For `O=C(Nc1ccnn1C1CCN(Cc2ccc(C#CCCO)cc2)CC1)c1cccc(F)c1`, the Potency was “inactive”.
In the case of `O=C(COC(=O)C1CC1)Nc1ccc(S(=O)(=O)N2CCOCC2)cc1`, the Potency is reported as “inactive”.
With `CC(C)(C)c1nc(SCC(=O)NC2CCCC2)c2ccccc2n1` the Potency was inconclusive: 7.3 µM [activator, single point].
With `COc1ccc(CCNC(=O)c2cc(COc3c(C)cccc3C)on2)c(OC)c1` the Potency was inconclusive: 22.4 µM [activator, single point].
With `CCOC(=O)CSc1nc2ccccc2c(=O)n1-c1cccc(C)c1` the Potency was “inactive”.
In the case of `CSc1ccc(CCNC(=O)c2ccc(-c3nc(COc4ccc(C)cc4)c(C)o3)cc2)cc1`, the Potency is reported as inconclusive: 17.8 µM [activator, single point].
In the case of `COC(=O)c1[nH]c2ccc(Br)cc2c1NC(=O)CN1CCN(C2CCCCC2)CC1`, the Potency is reported as inconclusive: 14.6 µM [inhibitor, partial curve, poor fit].
For `Cc1cc(-c2ccccc2)nc(Oc2ccc(C(C)(C)C)cc2)c1S(C)(=O)=O`, the Potency was inconclusive: 15.8 µM [inhibitor, single point].
In the case of `COc1cc(NC(=S)NCCCN2CCOCC2)c(OC)cc1NC(=O)c1ccco1`, the Potency is reported as inconclusive: 17.8 µM [activator, partial curve, poor fit].
With `Cc1ccc(NC(=O)c2cnn(C)c2)cc1[N+](=O)[O-]` the Potency was inconclusive: 3.16 µM [inhibitor, single point].
